# Source: PubChem BioAssay AID540303 (National Center for Advancing Translational Sciences (NCATS), 2011)
# Among all 330,000 compounds or so, about 1,000 (0.3%) were called active. The inconclusive results got no clear call from the source; some entries with a clear call stand among them for comparison. Calls follow the shape of the dose curve; as a rule, active = well fitted inhibition curve with a large enough effect; inconclusive = small, poorly fitted or top-dose-only effect; inactive = no such curve, though single readings can be large or run the other way; tested in mouse RAW 264.7 cells. Potencies of inconclusive entries are doubtful fits and often do not repeat.
# Assay: qHTS for Inhibitors of Cell Surface uPA Generation; also: nearly all actives have a fitted effect of over 55% in size
# Conditions: cell surface uPA generation assay; series mostly up to 38.3 µM; activity change, negative = inhibition: at the top concentration
# Outline: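 RAW 264.7 cells, 4000/well, given compound (1:5 dilutions, up to 38.3 uM final) and incubated 24 h at 37 C. Blocked uPA-dependent LF entry keeps ATP high; ATPlite luminescence read, 5 s exposure.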
# % is scaled to controls: 0 for no effect and ±100 for the full control effect; potency is read from the fitted curve at half-maximal effect.
Structure (SMILES),Potency,"activity change, negative = inhibition"
COc1ccccc1OCC(=O)Nc1ncc(C)s1,"inconclusive: 28.2 µM [inhibitor, single point]",
Cc1cc(C)nc(OC(C(=O)O)C(OCCc2ccccc2)(c2ccc(F)cc2)c2ccc(F)cc2)n1 (configuration not stated),"inconclusive: 14.1 µM [inhibitor, single point]",
O=C(c1ccsc1)N1CCCC(N2CCN(c3cccc(C(F)(F)F)c3)CC2)C1 (configuration not stated),,inactive: -3.87%
CNC(=O)c1csc(Cc2c(Cl)sc3ccc(Cl)cc23)n1,"inconclusive: 3.16 µM [inhibitor, full curve, poor fit]",
Oc1c(Br)cc(Br)cc1C=Nc1cccc2ncccc12,"inconclusive: 3.16 µM [inhibitor, full curve, poor fit]",
CN1CCN(C(=S)NC(=O)c2ccc(-c3ccccc3)cc2)CC1,"inconclusive: 7.94 µM [inhibitor, single point]",
Cc1[nH]c(C)c(S(=O)(=O)NCCc2ccc(S(N)(=O)=O)cc2)c1C(=O)N1CCCC1,,inactive: 2.46%
O=C(CCN1CCN(CCO)CC1)Nc1ccc(C2CCCC2)cc1,"inconclusive: 22.4 µM [inhibitor, partial curve, poor fit]",
CCN(CC)c1ccc(NC(=S)NC(=O)c2cccs2)cc1,,inactive: -8.73%
Cc1noc(C)c1COc1ccccc1C(=O)N(C)Cc1ccc(C(C)(C)C)cc1,"inconclusive: 14.1 µM [inhibitor, partial curve, poor fit]",
CC(=O)c1cccc(N/C=C\C(=O)c2ccc(C)cc2)c1,,inactive: -7.96%
CCC(=O)N1CCN(c2ccccc2NC(=O)COc2ccccc2Cl)CC1,,inactive: -2.71%
CCOC(=O)N1CCN(CCC(=O)c2ccc(OC)cc2)CC1,"inconclusive: 11.2 µM [inhibitor, partial curve, poor fit]",
CCc1ccc2oc(C(=O)Nc3cccnc3)c(C)c2c1,"inconclusive: 28.2 µM [inhibitor, single point]",
COc1ccccc1C(=O)Nc1ccc2c(c1)nc(CCNC(=O)c1ccco1)n2C,"inconclusive: 1.12 µM [inhibitor, full curve, poor fit]",
CCCCCCSc1ccc([C@@H]2[C@H]3C(=O)N(CC)C(=O)[C@H]3[C@]3(C(=O)OC)CCCCN23)cc1OC,,inactive: 23.5%
O=C(CCNS(=O)(=O)c1ccc(Br)cc1)NCc1ccc(F)cc1,"inconclusive: 0.447 µM [inhibitor, full curve, poor fit]",
O=C(NCCc1ccccc1)c1cccc(N2CCCC2=O)c1,"inconclusive: 6.31 µM [inhibitor, single point]",
COc1cccc(C(=O)Nc2cccc(NC(=O)c3cccs3)c2)c1,"inconclusive: 10 µM [inhibitor, partial curve, poor fit]",
COc1ccc(NC(=O)c2cccc(N3C(=O)c4cccc([N+](=O)[O-])c4C3=O)c2)cc1,"inconclusive: 12.6 µM [inhibitor, single point]",
CC(=C/C(=O)O)/C=C/c1ccc(Cl)o1,,inactive: 2.45%

Structure (SMILES),Potency,"activity change, negative = inhibition"
Cc1cccc(CCNC(=O)C2CCN(S(=O)(=O)N3CCOCC3)CC2)c1,"inconclusive: 8.91 µM [inhibitor, single point]",
Oc1c(C(c2ccccn2)N2CCOCC2)ccc2cccnc12 (configuration not stated),"inconclusive: 7.08 µM [inhibitor, partial curve, poor fit]",
Clc1ccc(-c2cn3ccccc3n2)cc1,active: 8.91 µM,
Cc1ccc(S(=O)(=O)/N=C(\N)c2ccc(F)cc2)cc1,"inconclusive: 0.224 µM [inhibitor, partial curve, poor fit]",
CCCCCc1cc(=O)oc2c(C(CCN3CCCCC3)c3ccc(OC)cc3)c(OC)cc(OC)c12 (configuration not stated),"inconclusive: 8.91 µM [inhibitor, partial curve, poor fit]",
COc1ccc(Cl)cc1N1C(=O)c2cccnc2C1=O,"inconclusive: 0.355 µM [inhibitor, full curve, poor fit]",
CCN(CC)C(=O)c1[nH]cnc1C(=O)N[C@@H](Cc1ccccc1)C(=O)OC(C)(C)C,"inconclusive: 0.0708 µM [inhibitor, full curve, poor fit]",
CC1Cc2nc(SCC(=O)NCCc3ccccc3)n(C)c(=O)c2S1 (configuration not stated),,inactive: 1.18%
CC(C)(CN1CCNCC1)NS(=O)(=O)c1ccc(Cl)cc1,"inconclusive: 7.08 µM [inhibitor, partial curve, poor fit]",
COCCNC(=O)CN(C(=O)CCC(=O)Nc1ccccn1)c1ccc(OC)cc1,,inactive: 0.838%
O=C(c1ccc2c3c(cccc13)CC2)C1CCCN(Cc2ccncc2)C1 (configuration not stated),"inconclusive: 0.316 µM [inhibitor, full curve, poor fit]",
Cc1cc(N2CCCC2)nc2ccc(NC(=S)NCCCOC(C)C)cc12,"inconclusive: 12.6 µM [inhibitor, single point]",
O=C(NCc1cccnc1)c1ccc(COc2ccccc2Cl)o1,"inconclusive: 1 µM [inhibitor, single point]",
COc1ccc([C@H]2CC(=O)C=C(c3ccc(F)cc3OCc3ccccc3)C2)cc1OC,"inconclusive: 28.2 µM [inhibitor, single point]",
Nc1nc2n(n1)C(c1cccc(Br)c1)CC(c1ccc(F)cc1)N2 (configuration not stated),"inconclusive: 3.55 µM [inhibitor, partial curve, poor fit]",
CCn1nnnc1SCC(=O)NCc1cccs1,,inactive: -2.5%
Cc1ccc(CN2C(=O)c3ccccc3Sc3ccc(C(=O)NCCN4CCOCC4)cc32)cc1,"inconclusive: 12.6 µM [inhibitor, single point]",
CCOc1ccc(C(=O)NCC(=O)NCC(c2cccs2)N2CCOCC2)cc1 (configuration not stated),,inactive: -0.0091%
O=C(CN1C(=O)CCC1=O)Nc1nc(-c2ccccn2)cs1,"inconclusive: 1 µM [inhibitor, full curve, poor fit]",
CN(C)C(=O)CCc1ccc2c3c([nH]c2c1)[C@]1(C)[C@@H](C(=O)N2CCCCC2)C[C@H](CC(=O)NCC24CC5CC(CC(C5)C2)C4)C(=O)N1CC3,"inconclusive: 22.4 µM [inhibitor, single point]",
CNCCC1Sc2ccccc2Oc2ccccc21 (configuration not stated),,inactive: -1.38%

# Arranged by length of the SMILES (largest number first): three of the compounds above
Structure (SMILES),Potency,"activity change, negative = inhibition"
CN(C)C(=O)CCc1ccc2c3c([nH]c2c1)[C@]1(C)[C@@H](C(=O)N2CCCCC2)C[C@H](CC(=O)NCC24CC5CC(CC(C5)C2)C4)C(=O)N1CC3,"inconclusive: 22.4 µM [inhibitor, single point]",
Cc1cccc(CCNC(=O)C2CCN(S(=O)(=O)N3CCOCC3)CC2)c1,"inconclusive: 8.91 µM [inhibitor, single point]",
CN1CCN(C(=S)NC(=O)c2ccc(-c3ccccc3)cc2)CC1,"inconclusive: 7.94 µM [inhibitor, single point]",
